Some entries share one result that the patent states for a list of compounds.
System: glucose dehydrogenase mutant 2
Assay: Enzymatic activity in test elements after storage (Example 2)
Assay type: biochemical, Bacillus subtilis
Settings: dry reagent composition on test element, stored with desiccant at 45° C. for 3 and 9 weeks; FIG. 1

SMILES	stabilizing effect (remaining activity of glucose dehydrogenase after storage compared to storage at 4° C. = 100%)
O=C(O)c1ccncc1 [isonicotinic acid, pyridine-4-carboxylic acid]	more than 10%
O=C(O)c1ccccn1 [picolinic acid, pyridine-2-carboxylic acid]	more than 10%

— patent US20160108391A1, “REAGENT COMPOSITIONS HAVING PYRIDINE-CARBOXYLIC ACID-[…], AS WELL AS METHODS OF MAKING AND USING THE SAME” (Roche Diabetes Care, Inc., priority 2013, published 2016)
